Tested on: OE21 cells
Assay: Cellular and nuclear ruthenium content by ICP-MS, OE21 cells
Format: cell-based, human
Conditions: OE21, 20 μM, 24 h

Substance: [Ru(phen)2(dppz)]^2+
- lower average cellular Ru content than cells treated with Ru1: 13 fold
- reduction in nuclear Ru content than cells treated with Ru1: 28 fold

Source: publication PMC5870190, “A three-in-one-bullet for oesophageal cancer: replication fork collapse, spindle attachment failure and enhanced radiosensitivity generated by a ruthenium(II) metallo-intercalator” (Chemical Science, 2017)
